The values that follow come from the supplement of paper PMC10849652.

Sequences of proteins named here, by UniProt entry; tags and fusion partners are left off. A change or cut given only in a name is not applied to a line headed by its entry.
UniProt Q99807: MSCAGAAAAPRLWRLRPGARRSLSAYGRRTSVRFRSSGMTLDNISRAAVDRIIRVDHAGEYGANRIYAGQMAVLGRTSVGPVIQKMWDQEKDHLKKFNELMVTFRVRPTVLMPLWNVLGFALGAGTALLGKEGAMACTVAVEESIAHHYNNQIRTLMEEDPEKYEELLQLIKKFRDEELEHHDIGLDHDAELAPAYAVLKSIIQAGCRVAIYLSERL
UniProt Q9NZJ6: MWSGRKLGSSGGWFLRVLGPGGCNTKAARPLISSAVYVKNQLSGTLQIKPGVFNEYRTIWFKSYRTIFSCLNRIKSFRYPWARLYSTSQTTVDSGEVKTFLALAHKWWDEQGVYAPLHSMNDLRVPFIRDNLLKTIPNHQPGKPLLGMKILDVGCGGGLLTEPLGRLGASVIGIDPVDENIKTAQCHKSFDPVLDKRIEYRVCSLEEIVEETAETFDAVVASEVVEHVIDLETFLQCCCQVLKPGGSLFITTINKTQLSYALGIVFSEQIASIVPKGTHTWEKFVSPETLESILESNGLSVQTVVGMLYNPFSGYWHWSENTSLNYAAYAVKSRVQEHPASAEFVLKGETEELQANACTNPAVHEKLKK
UniProt G9CGD6: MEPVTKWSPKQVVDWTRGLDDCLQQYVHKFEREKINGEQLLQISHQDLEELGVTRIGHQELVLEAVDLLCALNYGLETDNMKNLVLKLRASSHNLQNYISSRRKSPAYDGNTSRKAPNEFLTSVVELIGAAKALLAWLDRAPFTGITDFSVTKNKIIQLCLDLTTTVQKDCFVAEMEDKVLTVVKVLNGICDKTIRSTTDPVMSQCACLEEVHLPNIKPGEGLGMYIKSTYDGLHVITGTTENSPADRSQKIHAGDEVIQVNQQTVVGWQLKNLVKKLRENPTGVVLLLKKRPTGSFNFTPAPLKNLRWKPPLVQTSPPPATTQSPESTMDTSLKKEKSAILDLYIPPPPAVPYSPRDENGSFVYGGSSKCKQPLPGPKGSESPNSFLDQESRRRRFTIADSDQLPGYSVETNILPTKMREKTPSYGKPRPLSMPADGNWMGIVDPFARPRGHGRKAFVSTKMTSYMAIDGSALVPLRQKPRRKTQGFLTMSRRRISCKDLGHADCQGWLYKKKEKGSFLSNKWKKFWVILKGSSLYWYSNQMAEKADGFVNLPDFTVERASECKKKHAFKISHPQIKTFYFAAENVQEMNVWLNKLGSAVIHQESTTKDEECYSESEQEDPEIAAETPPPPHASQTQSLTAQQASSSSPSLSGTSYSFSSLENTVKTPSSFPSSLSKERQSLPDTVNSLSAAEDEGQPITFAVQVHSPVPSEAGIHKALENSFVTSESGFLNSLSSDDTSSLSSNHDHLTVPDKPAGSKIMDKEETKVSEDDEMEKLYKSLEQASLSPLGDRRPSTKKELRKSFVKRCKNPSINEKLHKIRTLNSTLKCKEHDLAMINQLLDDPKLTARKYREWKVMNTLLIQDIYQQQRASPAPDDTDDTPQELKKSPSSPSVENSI
UniProt Q9UBF2: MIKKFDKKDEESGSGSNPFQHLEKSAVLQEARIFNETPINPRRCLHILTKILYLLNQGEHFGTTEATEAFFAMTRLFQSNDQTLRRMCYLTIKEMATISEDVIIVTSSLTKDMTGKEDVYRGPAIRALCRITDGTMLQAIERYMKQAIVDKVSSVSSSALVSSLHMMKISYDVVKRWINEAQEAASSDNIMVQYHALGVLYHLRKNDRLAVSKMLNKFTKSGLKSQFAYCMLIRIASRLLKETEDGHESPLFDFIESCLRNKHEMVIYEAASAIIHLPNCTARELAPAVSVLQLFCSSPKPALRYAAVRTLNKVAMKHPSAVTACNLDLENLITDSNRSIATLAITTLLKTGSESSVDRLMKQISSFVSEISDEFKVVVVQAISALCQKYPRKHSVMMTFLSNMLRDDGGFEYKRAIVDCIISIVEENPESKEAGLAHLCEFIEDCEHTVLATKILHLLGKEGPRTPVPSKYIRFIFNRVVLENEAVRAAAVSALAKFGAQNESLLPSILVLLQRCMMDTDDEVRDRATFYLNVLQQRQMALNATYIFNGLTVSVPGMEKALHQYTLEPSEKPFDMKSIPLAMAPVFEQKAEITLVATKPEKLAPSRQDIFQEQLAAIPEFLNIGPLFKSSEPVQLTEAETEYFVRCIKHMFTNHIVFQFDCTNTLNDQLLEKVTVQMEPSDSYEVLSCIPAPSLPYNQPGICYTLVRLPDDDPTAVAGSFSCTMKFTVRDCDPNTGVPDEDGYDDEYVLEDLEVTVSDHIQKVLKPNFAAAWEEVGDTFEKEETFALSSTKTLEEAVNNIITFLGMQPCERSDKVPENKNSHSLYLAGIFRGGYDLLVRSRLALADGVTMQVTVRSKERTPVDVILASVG
UniProt Q9BWP8: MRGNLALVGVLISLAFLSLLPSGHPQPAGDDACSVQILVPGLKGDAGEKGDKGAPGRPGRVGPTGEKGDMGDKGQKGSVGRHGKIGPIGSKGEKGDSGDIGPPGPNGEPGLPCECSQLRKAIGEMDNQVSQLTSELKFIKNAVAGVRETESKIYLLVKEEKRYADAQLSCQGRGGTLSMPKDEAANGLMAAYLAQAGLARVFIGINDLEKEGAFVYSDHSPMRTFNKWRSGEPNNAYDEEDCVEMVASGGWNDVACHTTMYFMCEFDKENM
UniProt Q9Y6G5, whole entry, looked up: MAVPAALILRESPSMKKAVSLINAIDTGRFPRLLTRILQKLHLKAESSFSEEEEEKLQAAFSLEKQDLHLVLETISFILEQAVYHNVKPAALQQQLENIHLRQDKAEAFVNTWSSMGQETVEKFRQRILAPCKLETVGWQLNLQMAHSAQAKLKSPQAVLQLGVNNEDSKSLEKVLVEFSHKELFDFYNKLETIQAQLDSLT
UniProt O75208: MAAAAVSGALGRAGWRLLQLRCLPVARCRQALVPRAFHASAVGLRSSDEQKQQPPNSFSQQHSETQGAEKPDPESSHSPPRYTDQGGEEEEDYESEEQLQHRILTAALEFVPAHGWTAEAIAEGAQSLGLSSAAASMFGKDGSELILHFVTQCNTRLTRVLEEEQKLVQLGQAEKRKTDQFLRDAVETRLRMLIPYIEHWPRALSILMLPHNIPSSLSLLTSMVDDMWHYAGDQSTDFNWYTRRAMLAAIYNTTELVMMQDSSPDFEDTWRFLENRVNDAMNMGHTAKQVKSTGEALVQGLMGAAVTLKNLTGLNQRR
UniProt Q5TA50: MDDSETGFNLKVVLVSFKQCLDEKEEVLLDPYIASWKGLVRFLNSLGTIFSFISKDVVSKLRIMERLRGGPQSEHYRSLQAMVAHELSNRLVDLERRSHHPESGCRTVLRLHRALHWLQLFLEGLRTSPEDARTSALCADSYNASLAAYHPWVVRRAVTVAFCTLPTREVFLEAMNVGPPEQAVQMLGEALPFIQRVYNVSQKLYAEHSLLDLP
UniProt Q86VU5: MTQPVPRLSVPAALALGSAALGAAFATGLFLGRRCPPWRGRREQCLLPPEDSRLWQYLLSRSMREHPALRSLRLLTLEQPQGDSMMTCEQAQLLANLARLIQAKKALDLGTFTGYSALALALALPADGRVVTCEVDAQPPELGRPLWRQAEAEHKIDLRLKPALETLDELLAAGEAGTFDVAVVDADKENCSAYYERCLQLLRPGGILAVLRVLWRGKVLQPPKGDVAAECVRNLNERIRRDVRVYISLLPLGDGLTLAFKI
UniProt Q9NRU3: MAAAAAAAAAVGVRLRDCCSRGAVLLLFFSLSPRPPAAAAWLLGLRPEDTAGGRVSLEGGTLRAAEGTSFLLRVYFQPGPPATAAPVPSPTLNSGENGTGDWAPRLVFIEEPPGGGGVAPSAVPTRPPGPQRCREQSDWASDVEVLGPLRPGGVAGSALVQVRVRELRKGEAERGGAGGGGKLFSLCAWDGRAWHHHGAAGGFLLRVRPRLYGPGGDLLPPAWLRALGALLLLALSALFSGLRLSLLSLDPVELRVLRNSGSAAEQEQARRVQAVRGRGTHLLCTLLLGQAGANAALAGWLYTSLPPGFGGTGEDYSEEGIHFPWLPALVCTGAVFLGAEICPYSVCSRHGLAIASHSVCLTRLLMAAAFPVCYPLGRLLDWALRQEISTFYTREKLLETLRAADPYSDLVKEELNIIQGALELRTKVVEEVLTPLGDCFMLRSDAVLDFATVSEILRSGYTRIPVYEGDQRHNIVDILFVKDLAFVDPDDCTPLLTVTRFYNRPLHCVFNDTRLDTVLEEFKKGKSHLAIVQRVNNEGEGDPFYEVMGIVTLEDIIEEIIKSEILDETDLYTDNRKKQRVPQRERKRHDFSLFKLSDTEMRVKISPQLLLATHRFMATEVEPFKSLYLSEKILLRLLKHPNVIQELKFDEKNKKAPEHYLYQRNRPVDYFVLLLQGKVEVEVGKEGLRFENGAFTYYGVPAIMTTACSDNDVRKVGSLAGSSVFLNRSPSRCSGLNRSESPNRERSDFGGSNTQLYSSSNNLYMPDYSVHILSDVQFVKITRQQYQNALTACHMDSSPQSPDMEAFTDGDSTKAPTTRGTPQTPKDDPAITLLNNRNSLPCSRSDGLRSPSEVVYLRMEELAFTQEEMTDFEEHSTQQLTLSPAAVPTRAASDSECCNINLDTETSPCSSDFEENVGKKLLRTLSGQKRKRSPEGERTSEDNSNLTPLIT
UniProt O14810: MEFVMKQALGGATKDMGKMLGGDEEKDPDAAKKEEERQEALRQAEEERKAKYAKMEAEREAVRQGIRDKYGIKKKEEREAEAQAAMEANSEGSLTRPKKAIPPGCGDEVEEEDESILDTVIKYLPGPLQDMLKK
UniProt O43405: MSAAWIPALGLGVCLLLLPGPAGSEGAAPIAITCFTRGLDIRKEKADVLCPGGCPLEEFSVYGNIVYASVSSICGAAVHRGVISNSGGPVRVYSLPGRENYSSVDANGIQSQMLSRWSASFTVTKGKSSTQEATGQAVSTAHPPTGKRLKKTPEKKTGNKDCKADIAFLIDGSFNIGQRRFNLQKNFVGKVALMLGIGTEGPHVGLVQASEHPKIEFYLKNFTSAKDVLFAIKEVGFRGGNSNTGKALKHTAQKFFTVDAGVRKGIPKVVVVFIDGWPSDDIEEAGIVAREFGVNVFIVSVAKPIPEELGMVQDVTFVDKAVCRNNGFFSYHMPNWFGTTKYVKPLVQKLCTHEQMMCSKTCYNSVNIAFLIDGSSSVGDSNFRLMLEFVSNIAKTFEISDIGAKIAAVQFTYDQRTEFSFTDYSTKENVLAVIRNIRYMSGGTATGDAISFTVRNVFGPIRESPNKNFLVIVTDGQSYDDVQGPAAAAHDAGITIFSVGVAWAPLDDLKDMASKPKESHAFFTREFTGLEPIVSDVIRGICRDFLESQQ
UniProt Q8N129: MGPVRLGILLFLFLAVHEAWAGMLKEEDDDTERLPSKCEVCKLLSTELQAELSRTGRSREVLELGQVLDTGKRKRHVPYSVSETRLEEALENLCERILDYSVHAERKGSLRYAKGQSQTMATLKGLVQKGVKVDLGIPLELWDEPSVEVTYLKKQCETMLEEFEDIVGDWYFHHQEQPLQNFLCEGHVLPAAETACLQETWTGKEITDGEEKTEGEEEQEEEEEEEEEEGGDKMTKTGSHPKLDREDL
UniProt Q9H0A8, whole entry, looked up: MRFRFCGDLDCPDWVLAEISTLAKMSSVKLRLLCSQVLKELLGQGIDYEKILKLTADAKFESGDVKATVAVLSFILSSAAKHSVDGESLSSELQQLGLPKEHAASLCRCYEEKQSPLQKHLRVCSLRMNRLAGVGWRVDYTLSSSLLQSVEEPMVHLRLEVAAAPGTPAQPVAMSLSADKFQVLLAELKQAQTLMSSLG
UniProt P09669, whole entry, looked up: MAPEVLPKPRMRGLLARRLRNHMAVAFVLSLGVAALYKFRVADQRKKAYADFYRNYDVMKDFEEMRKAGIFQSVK
UniProt Q17RY0: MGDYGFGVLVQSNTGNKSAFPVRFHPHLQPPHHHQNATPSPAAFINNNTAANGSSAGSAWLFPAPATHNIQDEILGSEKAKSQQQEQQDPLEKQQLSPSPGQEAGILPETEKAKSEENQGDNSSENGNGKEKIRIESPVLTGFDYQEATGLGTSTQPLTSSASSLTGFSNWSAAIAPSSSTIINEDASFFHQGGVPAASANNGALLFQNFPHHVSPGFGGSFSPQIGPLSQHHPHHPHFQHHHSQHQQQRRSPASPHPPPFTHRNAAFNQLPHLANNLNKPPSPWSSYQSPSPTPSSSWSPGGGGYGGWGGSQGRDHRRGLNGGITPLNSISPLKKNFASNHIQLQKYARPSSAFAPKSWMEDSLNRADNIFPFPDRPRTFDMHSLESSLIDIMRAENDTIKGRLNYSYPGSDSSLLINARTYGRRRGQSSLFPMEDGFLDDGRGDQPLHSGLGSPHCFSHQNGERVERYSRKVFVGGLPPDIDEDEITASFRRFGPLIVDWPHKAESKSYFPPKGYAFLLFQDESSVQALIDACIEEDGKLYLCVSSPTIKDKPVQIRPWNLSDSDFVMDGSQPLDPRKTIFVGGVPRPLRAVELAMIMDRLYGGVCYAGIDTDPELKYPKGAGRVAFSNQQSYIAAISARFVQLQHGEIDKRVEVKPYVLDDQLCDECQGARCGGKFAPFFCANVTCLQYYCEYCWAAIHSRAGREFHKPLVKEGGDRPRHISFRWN
UniProt Q14061: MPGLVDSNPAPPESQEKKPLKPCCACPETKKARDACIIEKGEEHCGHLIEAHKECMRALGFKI

This is one part of the list.

Compound in the first experiment: NCC(=O)Nc1ccc(-n2nc(C(F)(F)F)cc2-c2ccc3c(ccc4ccccc43)c2)cc1
Briefly: log2 fold change, soluble protein after heating vs DMSO (PISA); higher = thermal stabilisation; K562 lysate, 10 uM; active = over 0.2 and 3.5 SD of the protein, either way, in both replicates (recomputed). The gist of the method: (§1)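 Thermal stability, expressed as log-two fold change relative to solvent controls, is given from duplicates. Crude K562 extract in PBS pH 7.4 with 1 mM MgCl2, at 1 mg/mL protein, was treated with 10 μM compound for 30 min and heated in aliquots for 3 min across 48°C-58°C. After pooling, adjustment to 0.5% NP-40 at 4°C and centrifugation at 21,000xg for 90 min, supernatant protein was measured by TMTpro 16plex LC-MS/MS with channel sums equalised.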
On to COPS3 isoform 2 (UniProt Q9UNS2), for which the log2 fold change was inactive: -0.123.

COQ7 (UniProt Q99807): the log2 fold change is inactive: -0.029.

Turning to COQ3 (UniProt Q9NZJ6), the log2 fold change is inactive: -0.055.

As to CNK3/IPCEF1 isoform 2 (UniProt G9CGD6), the log2 fold change was inactive: -0.02.

Take COPS3 (UniProt Q9UNS2): the log2 fold change was inactive: 0.036.

As for COPG2 (UniProt Q9UBF2), the log2 fold change was inactive: 0.042.

Regarding CNOT1 (UniProt A5YKK6), the log2 fold change is inactive: -0.011.

Turning to COLEC11 isoform 10 (UniProt Q9BWP8), the log2 fold change is inactive: -0.089.

Take COMMD10 (UniProt Q9Y6G5): the log2 fold change was inactive: 0.044.

COQ9 (UniProt O75208): the log2 fold change was inactive: 0.005.

Consider CPTP (UniProt Q5TA50), for which the log2 fold change is inactive: 0.044.

With COMTD1 (UniProt Q86VU5), the log2 fold change was inactive: -0.001.

Consider CNNM1 (UniProt Q9NRU3), for which the log2 fold change is inactive: 0.113.

Regarding CPLX1 (UniProt O14810), the log2 fold change is inactive: 0.

With COCH (UniProt O43405), the log2 fold change was inactive: 0.028.

In the case of CNPY4 (UniProt Q8N129), the log2 fold change is inactive: 0.041.

Consider COMMD4 (UniProt Q9H0A8), for which the log2 fold change was inactive: -0.005.

Regarding COX6C (UniProt P09669), the log2 fold change was inactive: 0.031.

As for CPEB4 (UniProt Q17RY0), the log2 fold change was inactive: 0.05.

Compound in a further experiment: O=C(CCCCCCC(=O)Nc1ccccc1)NO [vorinostat]
The experiment is described as above. The gist of the method: as §1
Take COL6A3 (UniProt P12111): the log2 fold change was inactive: 0.273.

For the target COX17 (UniProt Q14061), the log2 fold change was inactive: 0.048.

Turning to COQ8B (UniProt Q96D53), the log2 fold change was inactive: 0.141.

On to COMMD3-BMI1 (UniProt R4GMX3), for which the log2 fold change is inactive: -0.171.

Regarding CNOT2 (UniProt F8VRS8), the log2 fold change is inactive: -0.056.

As to COMMD6 isoform 2 (UniProt Q7Z4G1), the log2 fold change was inactive: -0.132.

With COQ7 (UniProt Q99807), the log2 fold change was inactive: 0.136.

As to COP1 (UniProt Q8NHY2), the log2 fold change is inactive: 0.012.

CRACR2B (UniProt Q8N4Y2): the log2 fold change was inactive: -0.063.

Take CPA4 (UniProt Q9UI42): the log2 fold change is inactive: 0.274.

Regarding COQ3 (UniProt Q9NZJ6), the log2 fold change was inactive: 0.19.

Regarding COL1A1 (UniProt P02452), the log2 fold change is inactive: 1.5.

On to CNK3/IPCEF1 isoform 2 (UniProt G9CGD6), for which the log2 fold change is inactive: -0.279.

COPS3 (UniProt Q9UNS2): the log2 fold change was inactive: 0.053.

COPG2 (UniProt Q9UBF2): the log2 fold change was inactive: 0.069.

As for CPEB3 (UniProt Q8NE35), the log2 fold change was inactive: -0.06.

In the case of COX14 (UniProt Q96I36), the log2 fold change is inactive: -0.185.

Consider CNOT1 (UniProt A5YKK6), for which the log2 fold change was inactive: -0.165.

With COLEC11 isoform 10 (UniProt Q9BWP8), the log2 fold change was inactive: 0.121.

COMMD10 (UniProt Q9Y6G5): the log2 fold change was inactive: 0.013.

As to CNTROB isoform 2 (UniProt Q8N137), the log2 fold change is inactive: -0.012.

As for CPLANE2 (UniProt Q9BU20), the log2 fold change is inactive: -0.037.

For the target COQ9 (UniProt O75208), the log2 fold change is inactive: 0.084.

As for CPTP (UniProt Q5TA50), the log2 fold change is inactive: -0.225.

As for COMTD1 (UniProt Q86VU5), the log2 fold change is inactive: -0.349.

For CNNM1 (UniProt Q9NRU3), the log2 fold change was inactive: 0.135.

In the case of CPNE2 (UniProt Q96FN4), the log2 fold change was inactive: 0.043.

For the target COPS9 (UniProt Q8WXC6), the log2 fold change is inactive: 0.341.

Consider COCH (UniProt O43405), for which the log2 fold change is inactive: 0.018.

With CNPY4 (UniProt Q8N129), the log2 fold change was inactive: 0.089.

In the case of COMMD4 (UniProt Q9H0A8), the log2 fold change is inactive: -0.17.

Regarding COX6C (UniProt P09669), the log2 fold change is inactive: 0.11.

Regarding CPEB4 (UniProt Q17RY0), the log2 fold change is inactive: -0.269.

Compound in another experiment: O=C(O)c1ccc2c(c1)nc(Nc1cccc(Cl)c1)c1ccncc12 [silmitasertib]
The experiment is described as above. An outline of the steps:
as §1
On to COL6A3 (UniProt P12111), for which the log2 fold change was inactive: 0.002.

For the target COX17 (UniProt Q14061), the log2 fold change is inactive: -0.004.

Consider COQ8B (UniProt Q96D53), for which the log2 fold change was inactive: -0.043.

Regarding COMMD3-BMI1 (UniProt R4GMX3), the log2 fold change is inactive: -0.095.

Take CNOT2 (UniProt F8VRS8): the log2 fold change was inactive: 0.152.

Turning to COMMD6 isoform 2 (UniProt Q7Z4G1), the log2 fold change was inactive: 0.123.

In the case of COQ7 (UniProt Q99807), the log2 fold change is inactive: 0.015.

For the target COP1 (UniProt Q8NHY2), the log2 fold change is inactive: 0.008.

For the target CRACR2B (UniProt Q8N4Y2), the log2 fold change is inactive: -0.176.

In the case of CPA4 (UniProt Q9UI42), the log2 fold change was inactive: -0.36.

With COQ3 (UniProt Q9NZJ6), the log2 fold change is inactive: 0.031.

Consider COL1A1 (UniProt P02452), for which the log2 fold change is inactive: -0.048.

CNK3/IPCEF1 isoform 2 (UniProt G9CGD6): the log2 fold change was inactive: 0.06.

Turning to COPS3 (UniProt Q9UNS2), the log2 fold change was inactive: -0.041.

COPG2 (UniProt Q9UBF2): the log2 fold change is inactive: -0.018.

With CPEB3 (UniProt Q8NE35), the log2 fold change was inactive: -0.101.

On to COX14 (UniProt Q96I36), for which the log2 fold change was inactive: -0.009.

Turning to CNOT1 (UniProt A5YKK6), the log2 fold change is inactive: 0.004.

As for COLEC11 isoform 10 (UniProt Q9BWP8), the log2 fold change is inactive: 0.026.

Regarding COMMD10 (UniProt Q9Y6G5), the log2 fold change is inactive: 0.048.

As for CNTROB isoform 2 (UniProt Q8N137), the log2 fold change is inactive: 0.104.

Regarding CPLANE2 (UniProt Q9BU20), the log2 fold change was inactive: -0.097.

As to COQ9 (UniProt O75208), the log2 fold change is inactive: 0.002.

As to CPTP (UniProt Q5TA50), the log2 fold change is inactive: -0.019.

Turning to COMTD1 (UniProt Q86VU5), the log2 fold change is inactive: 0.167.

For the target CNNM1 (UniProt Q9NRU3), the log2 fold change is inactive: 0.069.

For the target CPNE2 (UniProt Q96FN4), the log2 fold change was inactive: -0.074.

For COPS9 (UniProt Q8WXC6), the log2 fold change is inactive: -0.139.

On to COCH (UniProt O43405), for which the log2 fold change is inactive: 0.083.

For CNPY4 (UniProt Q8N129), the log2 fold change was inactive: 0.048.

For COMMD4 (UniProt Q9H0A8), the log2 fold change is inactive: 0.064.

COX6C (UniProt P09669): the log2 fold change is inactive: -0.02.

For CPEB4 (UniProt Q17RY0), the log2 fold change is inactive: 0.201.
